Measurements reported in patent publication US20030157712A1, “Methods for determining cell responses through EphB receptors” (priority 1997, published 2003).
No constants are given. Whether binding was seen depends on the method and setting. Some results given as binding are weak or reduced against the parent protein; the word gives no strength. For some assays here: Sequences can lack the tags named with a protein.

Amino acid sequences for entries named in this document (tags omitted). Residues count along the entry.
UniProt P54762, residues 18-984: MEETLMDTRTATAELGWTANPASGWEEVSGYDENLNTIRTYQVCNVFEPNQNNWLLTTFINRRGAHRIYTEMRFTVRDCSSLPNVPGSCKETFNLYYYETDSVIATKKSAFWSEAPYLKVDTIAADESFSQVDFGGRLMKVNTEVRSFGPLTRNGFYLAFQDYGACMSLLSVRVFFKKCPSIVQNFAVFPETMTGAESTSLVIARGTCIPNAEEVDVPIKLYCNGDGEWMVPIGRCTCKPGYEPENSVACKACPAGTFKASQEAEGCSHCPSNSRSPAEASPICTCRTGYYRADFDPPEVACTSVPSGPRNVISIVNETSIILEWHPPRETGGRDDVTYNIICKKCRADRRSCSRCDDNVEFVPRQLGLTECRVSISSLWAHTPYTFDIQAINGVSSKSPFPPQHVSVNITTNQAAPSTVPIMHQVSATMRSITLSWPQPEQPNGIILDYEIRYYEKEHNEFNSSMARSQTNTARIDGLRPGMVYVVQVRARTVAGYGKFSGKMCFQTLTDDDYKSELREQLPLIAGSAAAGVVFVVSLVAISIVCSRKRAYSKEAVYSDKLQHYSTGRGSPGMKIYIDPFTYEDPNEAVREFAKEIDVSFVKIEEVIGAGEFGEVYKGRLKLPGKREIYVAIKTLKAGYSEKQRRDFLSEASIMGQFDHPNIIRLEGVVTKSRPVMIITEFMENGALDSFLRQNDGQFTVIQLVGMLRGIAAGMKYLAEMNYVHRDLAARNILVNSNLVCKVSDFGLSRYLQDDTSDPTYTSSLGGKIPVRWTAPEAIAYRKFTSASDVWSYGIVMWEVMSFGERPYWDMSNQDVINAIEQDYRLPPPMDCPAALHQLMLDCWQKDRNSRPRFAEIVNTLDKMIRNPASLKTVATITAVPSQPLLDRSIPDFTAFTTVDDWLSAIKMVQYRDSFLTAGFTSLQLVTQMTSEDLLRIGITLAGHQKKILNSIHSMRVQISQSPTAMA
UniProt Q8CBF3, residues 18-984: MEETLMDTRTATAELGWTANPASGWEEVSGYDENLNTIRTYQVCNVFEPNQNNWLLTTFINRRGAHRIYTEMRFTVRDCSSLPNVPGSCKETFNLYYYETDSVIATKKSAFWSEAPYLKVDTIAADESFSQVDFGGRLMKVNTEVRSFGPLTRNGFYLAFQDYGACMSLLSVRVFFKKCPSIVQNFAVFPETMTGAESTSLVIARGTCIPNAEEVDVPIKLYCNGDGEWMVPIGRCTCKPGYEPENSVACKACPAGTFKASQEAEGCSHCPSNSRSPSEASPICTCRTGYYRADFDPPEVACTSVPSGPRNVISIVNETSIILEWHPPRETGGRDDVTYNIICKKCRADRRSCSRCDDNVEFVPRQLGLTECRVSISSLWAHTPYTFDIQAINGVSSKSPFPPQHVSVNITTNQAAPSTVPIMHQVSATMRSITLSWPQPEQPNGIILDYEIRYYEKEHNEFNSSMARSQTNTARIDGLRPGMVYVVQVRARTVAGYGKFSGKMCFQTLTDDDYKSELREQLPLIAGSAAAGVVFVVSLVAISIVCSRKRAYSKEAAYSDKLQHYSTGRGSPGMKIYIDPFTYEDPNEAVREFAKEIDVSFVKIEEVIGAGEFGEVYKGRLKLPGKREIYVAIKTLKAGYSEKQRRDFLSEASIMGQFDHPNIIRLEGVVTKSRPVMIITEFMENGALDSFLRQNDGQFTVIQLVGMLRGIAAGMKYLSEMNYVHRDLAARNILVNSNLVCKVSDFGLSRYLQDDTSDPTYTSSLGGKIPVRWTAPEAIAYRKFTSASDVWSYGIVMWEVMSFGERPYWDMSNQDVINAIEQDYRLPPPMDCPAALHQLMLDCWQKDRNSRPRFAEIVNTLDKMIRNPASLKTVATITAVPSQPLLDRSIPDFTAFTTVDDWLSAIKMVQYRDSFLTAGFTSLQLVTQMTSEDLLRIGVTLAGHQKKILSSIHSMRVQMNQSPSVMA

Columns and labels:
[1] = biological target: hEphB1/HA (wild-type human EphB1, HA epitope tagged, expressed from pSRα in P19 or HEK293 cells) (human) (UniProt P54762); test: anti-HA immunoprecipitation from transfected P19 cells stimulated with multimeric ephrin-B1/Fc, immunoblot
[2] = biological target: endogenous EphB1 receptor of P19 cells (teratocarcinoma-derived, pluripotent murine cells) (murine) (UniProt Q8CBF3); test: P19 cell attachment to nitrocellulose surfaces preadsorbed with ephrin-B1/Fc and fibronectin

Binder | binding [1] | binding [2]
endogenous LMW-PTP of P19 cells (enzyme, murine, UniProt Q9D358 2-158, looked up) AEVGSKSVLFVCLGNICRSPIAEAVFRKLVTDEKVSDNWRIDSAATSTYEVGNPPDYRGQNCMRKHGIHMQHIARQITKEDFATFDYILCMDESNLRDLNRKSNQVKNCKAKIELLGSYDPQKQLIIEDPYYGNDSDFEVVYQQCLRCCKAFLEKTY | binds | –
ephrin-B1/Fc dimer (disulfide-linked immunoglobulin Fc fusion form of ephrin-B1) (Fc fusion, UniProt P98172 28-237, looked up, not shown: a dimerising Fc or GST) LAKNLEPVSWSSLNPKFLSGKGLVIYPKIGDKLDIICPRAEAGRPYEYYKLYLVRPEQAAACSTVLDPNVLVTCNRPEQEIRFTIKFQEFSPNYMGLEFKKHHDYYITSTSNGSLEGLENREGGVCRTRTMKIIMKVGQDPNAVTPEQLTTSRPSKEADNTVKMATQAPGSRGSLGDSDGKHETVNQEEKSGPGASGGSSGDPDGFFNSK | – | binds
